# From publication PMC8558862 (Journal of Medicinal Chemistry, 2021)
# Plain letter strings leave the end groups untold.
# Assays:
# [1] = general procedure: Fmoc solid-phase peptide synthesis; 2-chlorotrityl chloride resin (loading 1.60 mmol/g); PyBOP, DIPEA (printed for the tetrameric chelator); conditions: TFA salt; for final HPLC purity: 220 nm
# [2] = general procedure: Fmoc solid-phase peptide synthesis; 2-chlorotrityl chloride resin; PyBOP, DIPEA (printed for the tetrameric chelator); conditions: whole synthesis, scale 0.8 mmol, TFA salt
substance,measurement,setting,value
C-GAESAPLVSSVQSPD,final HPLC purity,"[1]; whole synthesis, scale of the general procedure 0.8 mmol",>98%
CVVGSPSAQDEASPLS,final HPLC purity,"[1]; whole synthesis, scale of the general procedure 0.8 mmol, run 1",>98%
same,final HPLC purity,"[1]; whole synthesis, scale of the general procedure 0.8 mmol, run 2",> 95%
same,isolated yield,[2]; based on the estimated loading of the resin,50%
same,isolated mass,[2],0.62 g
Gd4-TESMA,final HPLC purity,[1]; conjugation step,>95%
same,conjugation yield,[1]; conjugation step,43%
same,isolated yield,"[1]; whole synthesis, overall, scale of the general procedure 0.8 mmol",about 60%
